Assay results taken from the supplement of paper PMC12024529.
Counter-ions that a name gives are not always drawn. This is one part of the list. Baselines shift from plate to plate; read single values as rough.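 The cells are HEK293 lines stably expressing B-domain-deleted factor VIII fused to Gaussia luciferase, either wild type or a misfolding-prone missense mutant. Each score is mean luminescence from triplicate wells minus the DMSO mean, divided by the DMSO standard deviation; a score of 2 or more counts as a hit, and low scores may reflect lower secretion or poorer cell viability.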

What was measured:
HEK293 WT BDD-FVIII-Gluc = assay: secreted FVIII-Gluc luciferase Z-score vs DMSO control; higher = more FVIII-Gluc secretion; conditions: 5 µM; 24 h
[1] = test system: HEK293 p.N1941S BDD-FVIII-Gluc; assay: as above; conditions: 5 µM; 24 h

Row | SMILES | secreted FVIII-Gluc luciferase Z-score (HEK293 WT BDD-FVIII-Gluc) | secreted FVIII-Gluc luciferase Z-score [1]
1 | CO[C@H]1C[C@@H]2CC[C@@H](C)[C@@](O)(O2)C(=O)C(=O)N2CCCC[C@H]2C(=O)O[C@H]([C@H](C)C[C@@H]2CC[C@@H](OC(=O)C(C)(CO)CO)[C@H](OC)C2)CC(=O)[C@H](C)/C=C(\C)[C@@H](O)[C@@H](OC)C(=O)[C@H](C)C[C@H](C)/C=C/C=C/C=C/1C [Temsirolimus (Torisel)] | inactive: -1.98 | inactive: -7.31
2 | CCCCCCCCCCCCCCCC[N+](C)(C)C [Cetrimonium Bromide] | inactive: -2.46 | inactive: -2.2
3 | OC(CNCC(O)C1CCc2cc(F)ccc2O1)C1CCc2cc(F)ccc2O1 (stereo not drawn) [Nebivolol (Bystolic)] | inactive: -4.21 | inactive: -0.463
4 | CCCCc1ncc(/C=C(\Cc2cccs2)C(=O)O)n1Cc1ccc(C(=O)O)cc1 [Eprosartan Mesylate] | active: 3.76 | inactive: -0.243
5 | CCCCOc1ccc(C(=O)CCN2CCCCC2)cc1 [Dyclonine HCl] | inactive: -0.157 | inactive: -1.91
6 | COc1cc2nc(N3CCN(C(=O)C4CCCO4)CC3)nc(N)c2cc1OC (stereo not drawn) [Terazosin HCl (Hytrin)] | inactive: 0.195 | inactive: -1.85
7 | C[C@@H]1CC(=O)NN=C1c1ccc(NN=C(C#N)C#N)cc1 [Levosimendan] | inactive: -2.09 | inactive: -2.15
8 | CC(C)(OCc1nn(Cc2ccccc2)c2ccccc12)C(=O)O [Bindarit] | inactive: 1.08 | inactive: 0.26
9 | O=C1Cc2cc(CCN3CCN(c4nsc5ccccc45)CC3)c(Cl)cc2N1 [Ziprasidone hydrochloride] | inactive: -5.14 | inactive: -1.6
10 | Clc1ccc(C(Cn2ccnc2)OCc2c(Cl)cccc2Cl)c(Cl)c1 (stereo not drawn) [Isoconazole nitrate (Travogen)] | inactive: -4.93 | inactive: -0.714
11 | Clc1cccc(Cl)c1NC1=NCCN1 [Clonidine hydrochloride (Catapres)] | inactive: -1.8 | inactive: -1.07
12 | CN(C)CCC(c1ccc(Br)cc1)c1ccccn1 (stereo not drawn) [Brompheniramine] | inactive: -1.05 | inactive: -1.54
13 | C[C@H]1O[C@@H](n2cc(F)c(=O)[nH]c2=O)[C@H](O)[C@@H]1O [Doxifluridine] | inactive: -0.947 | inactive: -0.477
14 | Cn1c(=O)c2[nH]cnc2n(C)c1=O [Aminophylline (Truphylline)] | inactive: 1.14 | inactive: 0.37
15 | CCc1c(Cl)c(O)c(Cl)c(O)c1C(=O)O[C@H]1[C@H](O)[C@H](OC)[C@H](OC/C2=C\C=C\C[C@H](O)/C(C)=C/[C@H](CC)[C@@H](O[C@@H]3OC(C)(C)[C@@H](OC(=O)C(C)C)[C@H](O)[C@@H]3O)/C(C)=C/C(C)=C/C[C@@H]([C@@H](C)O)OC2=O)O[C@@H]1C [Fidaxomicin] | inactive: -1.44 | inactive: -0.55
16 | COc1ccccc1OCC(O)CO (stereo not drawn) [Guaifenesin (Guaiphenesin)] | inactive: -0.669 | inactive: -1.24
17 | CCOC(=O)C1=C(COCCN)NC(C)=C(C(=O)OC)C1c1ccccc1Cl (stereo not drawn) [Amlodipine (Norvasc)] | inactive: 0.199 | inactive: 0.0365
18 | COc1ccc2c(c1OC)C(=O)O[C@@H]2[C@H]1c2c(cc3c(c2OC)OCO3)CCN1C [Noscapine HCl] | inactive: -1.84 | inactive: -1.53
19 | Cc1cccc(N(C)C(=S)Oc2ccc3ccccc3c2)c1 [Tolnaftate] | inactive: -2.17 | inactive: -1.85
20 | O=C(O)CCc1nc(-c2ccccc2)c(-c2ccccc2)o1 [Oxaprozin] | inactive: -1.08 | inactive: -0.103
21 | C[N+]1(C)CCC(=C(c2ccccc2)c2ccccc2)CC1 [Diphemanil methylsulfate] | inactive: -0.915 | inactive: -1.14
22 | CC1(C)O[C@@H]2C[C@H]3[C@@H]4C[C@H](F)C5=CC(=O)C=C[C@]5(C)[C@@]4(F)[C@@H](O)C[C@]3(C)[C@]2(C(=O)CO)O1 [Fluocinolone acetonide (Flucort-N)] | active: 4.6 | active: 9.62
23 | O=C(N/N=C/c1ccc([N+](=O)[O-])o1)c1ccc(O)cc1 [Nifuroxazide] | inactive: 0.575 | inactive: -0.556
24 | CC(=O)Oc1ccccc1C(=O)Nc1ncc([N+](=O)[O-])s1 [Nitazoxanide (Alinia, Annita)] | inactive: -1.96 | inactive: -0.207

Three entries out of the list, ordered by formula weight, ascending:
Row | SMILES | secreted FVIII-Gluc luciferase Z-score (HEK293 WT BDD-FVIII-Gluc) | secreted FVIII-Gluc luciferase Z-score [1]
16 | COc1ccccc1OCC(O)CO (stereo not drawn) [Guaifenesin (Guaiphenesin)] | inactive: -0.669 | inactive: -1.24
23 | O=C(N/N=C/c1ccc([N+](=O)[O-])o1)c1ccc(O)cc1 [Nifuroxazide] | inactive: 0.575 | inactive: -0.556
24 | CC(=O)Oc1ccccc1C(=O)Nc1ncc([N+](=O)[O-])s1 [Nitazoxanide (Alinia, Annita)] | inactive: -1.96 | inactive: -0.207
